This is one part of the list. Residues, ends and D or L forms follow the SMILES beside them. *: point of attachment. Cbz = O=C(OCc1ccccc1)*
Tests used:
Experiment in all cases: log2 fold change, soluble protein after heating vs DMSO (PISA); higher = thermal stabilisation; K562 cells, 10 uM, 30 min; active = over 0.2 and 3.5 SD of the protein, either way, in both replicates (recomputed)
erlotinib = compound: C#Cc1cccc(Nc2ncnc3cc(OCCOC)c(OCCOC)cc23)c1 [erlotinib]
In short: (§1)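 K562 cells at 2×10^6 cells/mL were given 10 μM compound for 30 min. Aliquots then went through 3 min of heating across 48°C-58°C, were pooled, and were extracted in PBS with 0.5% NP-40 at 4°C, and the supernatant after 21,000xg for 90 min was quantified by TMTpro 16plex LC-MS/MS with channel sums equalised. Thermal stability relative to control samples, from duplicates, is given as log2 fold change.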

By UniProt entry, the sequences of proteins in these tests, tags left out. Where a name states a change or a piece, a line headed by the entry shows the natural chain unless it says otherwise.
UniProt Q9Y4C2: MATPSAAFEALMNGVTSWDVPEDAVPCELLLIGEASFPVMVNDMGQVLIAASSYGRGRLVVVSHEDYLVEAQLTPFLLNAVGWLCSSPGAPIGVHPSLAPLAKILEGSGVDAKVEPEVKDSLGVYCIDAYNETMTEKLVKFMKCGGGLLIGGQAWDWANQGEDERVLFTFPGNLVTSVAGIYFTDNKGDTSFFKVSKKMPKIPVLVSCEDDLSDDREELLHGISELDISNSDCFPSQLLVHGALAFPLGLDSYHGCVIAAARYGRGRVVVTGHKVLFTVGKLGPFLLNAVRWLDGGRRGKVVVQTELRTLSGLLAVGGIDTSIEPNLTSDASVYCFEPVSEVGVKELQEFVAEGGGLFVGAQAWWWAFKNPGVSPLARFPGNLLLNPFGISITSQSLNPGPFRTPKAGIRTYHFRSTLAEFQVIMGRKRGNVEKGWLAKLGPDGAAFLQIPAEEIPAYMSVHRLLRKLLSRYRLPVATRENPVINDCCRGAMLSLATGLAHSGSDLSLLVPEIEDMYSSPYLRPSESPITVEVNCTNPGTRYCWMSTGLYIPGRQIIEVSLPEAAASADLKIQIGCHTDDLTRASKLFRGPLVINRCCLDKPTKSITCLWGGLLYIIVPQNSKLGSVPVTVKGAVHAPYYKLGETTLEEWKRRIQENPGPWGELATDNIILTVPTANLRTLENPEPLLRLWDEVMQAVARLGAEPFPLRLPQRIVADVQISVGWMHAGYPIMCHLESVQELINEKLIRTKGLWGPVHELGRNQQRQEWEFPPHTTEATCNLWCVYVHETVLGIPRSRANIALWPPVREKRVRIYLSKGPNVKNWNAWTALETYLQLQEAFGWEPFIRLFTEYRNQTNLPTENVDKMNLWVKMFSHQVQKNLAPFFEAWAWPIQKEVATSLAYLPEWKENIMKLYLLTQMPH
UniProt Q14186: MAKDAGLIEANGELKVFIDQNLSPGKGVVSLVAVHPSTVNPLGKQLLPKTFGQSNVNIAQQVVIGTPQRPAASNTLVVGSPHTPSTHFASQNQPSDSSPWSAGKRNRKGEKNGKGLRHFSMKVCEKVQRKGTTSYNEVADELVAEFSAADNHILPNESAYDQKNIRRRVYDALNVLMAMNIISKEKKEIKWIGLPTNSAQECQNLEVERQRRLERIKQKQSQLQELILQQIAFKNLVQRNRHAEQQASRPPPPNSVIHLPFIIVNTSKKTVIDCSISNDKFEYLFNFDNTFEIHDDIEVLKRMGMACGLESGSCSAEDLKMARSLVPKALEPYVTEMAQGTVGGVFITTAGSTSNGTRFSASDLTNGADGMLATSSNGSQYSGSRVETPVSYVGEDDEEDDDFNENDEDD
UniProt Q86W42: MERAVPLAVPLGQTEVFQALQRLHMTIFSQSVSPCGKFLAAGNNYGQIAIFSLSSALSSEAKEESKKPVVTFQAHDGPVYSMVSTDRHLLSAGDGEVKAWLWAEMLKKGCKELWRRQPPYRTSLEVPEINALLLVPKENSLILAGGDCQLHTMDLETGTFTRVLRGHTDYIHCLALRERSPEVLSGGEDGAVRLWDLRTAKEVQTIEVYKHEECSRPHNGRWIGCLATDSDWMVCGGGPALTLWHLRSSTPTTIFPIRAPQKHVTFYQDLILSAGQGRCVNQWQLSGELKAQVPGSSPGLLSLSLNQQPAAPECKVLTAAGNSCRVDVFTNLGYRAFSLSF
UniProt Q5T1C6: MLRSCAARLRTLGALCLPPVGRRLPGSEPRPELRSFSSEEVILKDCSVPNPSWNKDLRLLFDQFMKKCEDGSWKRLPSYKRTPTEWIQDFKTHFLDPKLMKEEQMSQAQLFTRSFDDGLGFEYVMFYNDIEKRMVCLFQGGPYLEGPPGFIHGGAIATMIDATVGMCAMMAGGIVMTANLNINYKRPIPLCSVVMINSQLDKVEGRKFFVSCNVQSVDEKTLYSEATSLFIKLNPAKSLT
UniProt Q6I9Y2: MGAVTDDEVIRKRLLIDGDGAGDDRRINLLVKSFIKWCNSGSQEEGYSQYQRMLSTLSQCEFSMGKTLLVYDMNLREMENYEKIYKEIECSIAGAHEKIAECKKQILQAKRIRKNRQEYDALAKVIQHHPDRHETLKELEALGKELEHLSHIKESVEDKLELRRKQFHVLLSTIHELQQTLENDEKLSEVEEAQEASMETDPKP
UniProt Q9UDY2: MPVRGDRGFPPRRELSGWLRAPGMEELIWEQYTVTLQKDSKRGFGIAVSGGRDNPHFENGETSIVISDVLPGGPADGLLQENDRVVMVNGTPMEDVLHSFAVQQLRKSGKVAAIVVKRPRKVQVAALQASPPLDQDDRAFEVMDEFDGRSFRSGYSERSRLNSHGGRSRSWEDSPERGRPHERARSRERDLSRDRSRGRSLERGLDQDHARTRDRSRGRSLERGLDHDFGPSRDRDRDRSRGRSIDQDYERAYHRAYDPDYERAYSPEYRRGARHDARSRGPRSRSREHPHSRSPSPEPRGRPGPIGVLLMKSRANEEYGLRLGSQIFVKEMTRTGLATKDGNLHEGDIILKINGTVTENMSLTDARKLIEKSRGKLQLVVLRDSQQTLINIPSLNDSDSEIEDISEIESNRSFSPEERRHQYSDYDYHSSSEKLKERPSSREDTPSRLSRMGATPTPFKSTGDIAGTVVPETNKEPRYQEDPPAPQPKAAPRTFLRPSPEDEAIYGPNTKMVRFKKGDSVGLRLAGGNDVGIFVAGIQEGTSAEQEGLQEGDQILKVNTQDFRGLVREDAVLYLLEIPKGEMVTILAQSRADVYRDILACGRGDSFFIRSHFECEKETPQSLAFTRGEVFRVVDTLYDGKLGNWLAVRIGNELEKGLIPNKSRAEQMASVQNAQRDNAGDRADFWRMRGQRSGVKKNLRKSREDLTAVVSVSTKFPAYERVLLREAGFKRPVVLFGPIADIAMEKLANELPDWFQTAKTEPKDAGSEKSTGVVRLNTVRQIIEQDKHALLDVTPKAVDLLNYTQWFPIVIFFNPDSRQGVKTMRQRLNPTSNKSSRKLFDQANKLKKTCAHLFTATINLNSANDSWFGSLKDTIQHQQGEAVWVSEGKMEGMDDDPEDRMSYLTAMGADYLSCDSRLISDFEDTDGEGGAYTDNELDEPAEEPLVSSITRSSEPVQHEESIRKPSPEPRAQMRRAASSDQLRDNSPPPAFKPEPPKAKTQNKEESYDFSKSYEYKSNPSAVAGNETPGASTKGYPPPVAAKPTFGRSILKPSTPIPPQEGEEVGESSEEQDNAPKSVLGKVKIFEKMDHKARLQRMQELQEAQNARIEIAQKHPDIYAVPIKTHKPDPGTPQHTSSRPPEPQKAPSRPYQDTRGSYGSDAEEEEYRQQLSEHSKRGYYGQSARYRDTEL
UniProt Q13488, whole entry, looked up: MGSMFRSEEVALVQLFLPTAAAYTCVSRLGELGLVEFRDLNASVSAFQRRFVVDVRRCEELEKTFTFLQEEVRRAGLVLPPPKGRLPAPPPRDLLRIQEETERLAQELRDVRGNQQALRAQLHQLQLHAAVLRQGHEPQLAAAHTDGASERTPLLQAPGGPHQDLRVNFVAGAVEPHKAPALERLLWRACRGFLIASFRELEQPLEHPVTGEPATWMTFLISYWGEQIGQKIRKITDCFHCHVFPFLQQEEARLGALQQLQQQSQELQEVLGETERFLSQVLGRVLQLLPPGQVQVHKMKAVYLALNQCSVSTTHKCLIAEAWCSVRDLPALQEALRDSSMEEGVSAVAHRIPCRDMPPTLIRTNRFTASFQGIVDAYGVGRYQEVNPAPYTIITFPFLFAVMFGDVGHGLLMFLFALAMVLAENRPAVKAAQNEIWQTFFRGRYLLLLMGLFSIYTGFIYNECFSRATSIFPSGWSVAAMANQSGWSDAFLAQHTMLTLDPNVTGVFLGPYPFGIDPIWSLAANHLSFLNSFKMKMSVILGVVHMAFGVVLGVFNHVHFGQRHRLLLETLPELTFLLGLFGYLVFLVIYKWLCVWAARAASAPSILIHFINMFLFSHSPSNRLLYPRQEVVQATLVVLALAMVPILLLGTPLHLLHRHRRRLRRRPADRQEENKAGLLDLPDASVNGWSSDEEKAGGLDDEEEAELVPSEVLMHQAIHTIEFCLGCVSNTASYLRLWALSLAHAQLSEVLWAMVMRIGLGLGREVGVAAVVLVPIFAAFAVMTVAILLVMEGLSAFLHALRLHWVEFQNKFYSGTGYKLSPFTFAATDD
UniProt Q99081: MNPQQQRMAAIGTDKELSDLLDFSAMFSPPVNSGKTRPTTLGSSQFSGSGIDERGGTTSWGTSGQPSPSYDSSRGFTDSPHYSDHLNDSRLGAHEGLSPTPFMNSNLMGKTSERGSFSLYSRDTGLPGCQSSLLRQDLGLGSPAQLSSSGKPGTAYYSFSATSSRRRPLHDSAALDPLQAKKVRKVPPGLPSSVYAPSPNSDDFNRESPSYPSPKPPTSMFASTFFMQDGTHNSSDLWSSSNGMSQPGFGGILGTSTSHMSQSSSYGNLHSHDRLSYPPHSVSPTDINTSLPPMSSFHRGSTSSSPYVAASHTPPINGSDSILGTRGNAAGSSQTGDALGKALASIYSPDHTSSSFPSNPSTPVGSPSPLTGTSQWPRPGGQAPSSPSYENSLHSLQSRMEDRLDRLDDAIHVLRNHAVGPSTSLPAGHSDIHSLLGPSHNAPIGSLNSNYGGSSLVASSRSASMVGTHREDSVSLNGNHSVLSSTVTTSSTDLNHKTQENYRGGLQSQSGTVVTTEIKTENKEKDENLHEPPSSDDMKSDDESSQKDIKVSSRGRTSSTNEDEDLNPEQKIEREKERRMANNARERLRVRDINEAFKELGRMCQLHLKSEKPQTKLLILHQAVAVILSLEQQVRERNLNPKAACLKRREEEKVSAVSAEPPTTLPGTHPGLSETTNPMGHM
UniProt Q13769: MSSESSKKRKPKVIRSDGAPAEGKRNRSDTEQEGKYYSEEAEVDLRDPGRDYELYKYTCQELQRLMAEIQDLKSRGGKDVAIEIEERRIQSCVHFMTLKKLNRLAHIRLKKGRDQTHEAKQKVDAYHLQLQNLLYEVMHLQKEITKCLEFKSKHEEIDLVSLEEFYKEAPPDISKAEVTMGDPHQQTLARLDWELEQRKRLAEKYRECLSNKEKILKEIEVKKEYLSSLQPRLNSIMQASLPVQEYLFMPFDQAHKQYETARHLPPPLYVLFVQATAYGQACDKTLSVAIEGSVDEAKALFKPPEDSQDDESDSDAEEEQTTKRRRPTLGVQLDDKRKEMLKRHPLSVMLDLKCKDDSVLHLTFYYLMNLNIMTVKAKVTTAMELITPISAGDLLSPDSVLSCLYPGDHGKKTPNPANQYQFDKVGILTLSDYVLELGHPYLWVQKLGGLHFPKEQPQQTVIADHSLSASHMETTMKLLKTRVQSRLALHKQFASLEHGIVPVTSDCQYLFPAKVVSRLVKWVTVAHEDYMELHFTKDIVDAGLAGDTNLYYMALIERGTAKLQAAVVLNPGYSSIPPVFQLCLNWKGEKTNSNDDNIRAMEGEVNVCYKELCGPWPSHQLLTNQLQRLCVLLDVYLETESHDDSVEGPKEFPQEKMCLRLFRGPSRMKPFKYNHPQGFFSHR
UniProt P29401: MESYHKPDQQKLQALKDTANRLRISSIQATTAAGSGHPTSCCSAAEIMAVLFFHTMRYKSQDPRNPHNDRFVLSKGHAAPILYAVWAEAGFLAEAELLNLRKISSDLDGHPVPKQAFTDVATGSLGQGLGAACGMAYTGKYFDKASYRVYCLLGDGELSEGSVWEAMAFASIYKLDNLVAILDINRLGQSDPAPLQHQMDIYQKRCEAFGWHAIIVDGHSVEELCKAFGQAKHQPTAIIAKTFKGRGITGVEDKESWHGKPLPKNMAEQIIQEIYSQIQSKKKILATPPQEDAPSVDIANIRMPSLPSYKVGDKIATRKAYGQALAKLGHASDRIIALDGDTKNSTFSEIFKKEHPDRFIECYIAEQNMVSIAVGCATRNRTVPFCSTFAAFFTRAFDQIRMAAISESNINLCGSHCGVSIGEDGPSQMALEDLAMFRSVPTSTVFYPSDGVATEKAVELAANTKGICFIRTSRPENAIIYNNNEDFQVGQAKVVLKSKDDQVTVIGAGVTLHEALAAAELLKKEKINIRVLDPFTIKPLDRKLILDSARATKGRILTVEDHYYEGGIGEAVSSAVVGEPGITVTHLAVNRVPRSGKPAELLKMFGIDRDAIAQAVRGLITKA
UniProt Q9Y4P3: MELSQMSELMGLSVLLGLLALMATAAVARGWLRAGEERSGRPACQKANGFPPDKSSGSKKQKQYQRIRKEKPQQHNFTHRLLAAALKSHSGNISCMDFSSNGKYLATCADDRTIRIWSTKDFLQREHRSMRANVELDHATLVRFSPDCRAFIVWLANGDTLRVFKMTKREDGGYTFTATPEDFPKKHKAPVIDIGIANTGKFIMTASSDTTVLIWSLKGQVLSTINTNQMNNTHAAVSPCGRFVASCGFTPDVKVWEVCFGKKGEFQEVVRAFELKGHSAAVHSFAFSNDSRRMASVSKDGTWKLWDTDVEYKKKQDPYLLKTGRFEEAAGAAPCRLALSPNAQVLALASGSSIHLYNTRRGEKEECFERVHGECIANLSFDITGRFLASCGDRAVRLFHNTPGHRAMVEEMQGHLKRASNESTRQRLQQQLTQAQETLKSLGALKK

[1] = compound: C/C(=N\NC(=O)C1=CC(=CC=C1)S(=O)(=O)N2CCOCC2)/C3=C(C=CC(=C3)Cl)O
In short: as §1

[2] = compound: C1=CC(=C(C=C1Cl)C2=NC3=NC=CN=C3C(=N2)NC4=CC=NC=C4)F
In short: as §1

[3] = compound: C1=CC(=CC=C1C2=NC3=C(N2)C=C(C=C3)C(=O)N)OC4=CC=C(C=C4)Cl
In short: as §1

[4] = compound: C1=CC2=C(C=CC(=C2)/C=C\3/C(=O)NC(=NCC4=CC=CS4)S3)N=C1
In short: as §1

[5] = compound: C1=CC2=NC=CN=C2C=C1/C=C/3\C(=O)NC(=O)S3
In short: as §1

[6] = compound: C1=CC=C(C=C1)C2=NC(=C(N2)C3=CC=NC=C3)C4=CC(=C(C=C4)Cl)O
In short: as §1

[7] = compound: C1=CC=C2C(=C1)C3=NNC4=CC=CC(=C43)C2=O
In short: as §1

[8] = compound: C1CCN(C1)C(=O)NC2=CC=CC(=C2)NC3=NC=C(C(=N3)NCCC4=CN=CN4)Br
In short: as §1

[9] = compound: C1CN(CCC1(CC2=CC=C(C=C2)Cl)N)C3=NC=NC4=C3C=CN4
In short: as §1

IRAK-1-4 Inhibitor I = compound: C1COCCN1CCN2C3=CC=CC=C3N=C2NC(=O)C4=CC(=CC=C4)[N+](=O)[O-] [IRAK-1-4 Inhibitor I]
In short: as §1

ibrutinib = compound: C=CC(=O)N1CCC[C@@H](n2nc(-c3ccc(Oc4ccccc4)cc3)c3c(N)ncnc32)C1 [ibrutinib]
In short: as §1

[10] = compound: CC(=O)c1cnc2ccc(-c3cc(Cl)c(O)c(Cl)c3)nc2c1N[C@H]1CC[C@H](CN(C)C)CC1
In short: as §1

ralimetinib = compound: CC(C)(C)Cn1c(N)nc2ccc(-c3[nH]c(C(C)(C)C)nc3-c3ccc(F)cc3)nc21 [ralimetinib]
In short: as §1

[11] = compound: CC(C)(O)CC(=O)NCCn1ccc2ncnc(Nc3ccc(Oc4cccc(C(F)(F)F)c4)c(Cl)c3)c21
In short: as §1

[12] = compound: CC(C)C1=C2N=C(C=C(N2N=C1)NCC3=CC=CC=C3)NCCCCCCN
In short: as §1

[13] = compound: CC(C)C[C@@H](C=O)NC(=O)[C@H](CC(C)C)NC(=O)[C@H](CC(C)C)NC(=O)OCc1ccccc1
In short: as §1

pinometostat = compound: CC(C)N(C[C@H]1O[C@@H](n2cnc3c(N)ncnc32)[C@H](O)[C@@H]1O)[C@H]1C[C@@H](CCc2nc3cc(C(C)(C)C)ccc3[nH]2)C1 [pinometostat]
In short: as §1

[14] = compound: CC1=C(C(CC(=O)N1)C2=CC=C(C=C2)C(F)(F)F)C(=O)NC3=C(C=C4C(=C3)C=NN4)F
In short: as §1

[15] = compound: CC1=C(C2=C(C=C1)C(=O)C3=CC=CC=C3N2CCCN)C
In short: as §1

Row | Target | log2 fold change (erlotinib) | log2 fold change [1] | log2 fold change [2] | log2 fold change [3] | log2 fold change [4] | log2 fold change [5] | log2 fold change [6] | log2 fold change [7] | log2 fold change [8] | log2 fold change [9] | log2 fold change (IRAK-1-4 Inhibitor I) | log2 fold change (ibrutinib) | log2 fold change [10] | log2 fold change (ralimetinib) | log2 fold change [11] | log2 fold change [12] | log2 fold change [13] | log2 fold change (pinometostat) | log2 fold change [14] | log2 fold change [15]
1 | TCAF1 (UniProt Q9Y4C2) | inactive: 0.029 | inactive: 0.076 | inactive: -0.036 | inactive: 0.027 | inactive: 0.107 | inactive: 0.004 | inactive: 0.027 | inactive: 0.037 | inactive: 0 | inactive: -0.002 | inactive: -0.035 | inactive: 0.026 | inactive: -0.04 | inactive: 0.09 | inactive: -0.085 | inactive: -0.085 | inactive: 0.077 | inactive: 0.07 | inactive: 0.008 | inactive: 0.018
2 | TGM2 (UniProt P21980) | inactive: 0.032 | inactive: 0.008 | inactive: 0.061 | inactive: -0.021 | inactive: -0.006 | inactive: 0.01 | inactive: 0.038 | inactive: 0.003 | inactive: -0.046 | inactive: 0.083 | inactive: 0.026 | inactive: -0.001 | inactive: -0.002 | inactive: -0.048 | inactive: -0.027 | inactive: 0.014 | inactive: -0.083 | inactive: -0.024 | inactive: 0.025 | inactive: -0.004
3 | TFDP1 (UniProt Q14186) | inactive: 0.054 | inactive: 0.021 | inactive: 0.058 | inactive: 0.037 | inactive: 0.054 | inactive: -0.023 | inactive: -0.002 | inactive: -0.026 | inactive: 0.105 | inactive: 0.015 | inactive: -0.061 | inactive: 0 | inactive: 0.348 | inactive: 0.046 | inactive: -0.076 | inactive: -0.172 | inactive: 0.017 | inactive: 0.035 | inactive: 0.01 | inactive: -0.155
4 | THOC6 (UniProt Q86W42) | inactive: -0.002 | inactive: -0.001 | inactive: 0.024 | inactive: -0.011 | inactive: -0.007 | inactive: -0.013 | inactive: -0.007 | inactive: 0.03 | inactive: -0.015 | inactive: 0.009 | inactive: 0.016 | inactive: 0.007 | inactive: -0.001 | inactive: -0.02 | inactive: -0.004 | inactive: 0.051 | inactive: 0 | inactive: -0.02 | inactive: -0.02 | inactive: 0.071
5 | THEM4 (UniProt Q5T1C6) | inactive: -0.013 | inactive: 0.019 | inactive: 0.039 | inactive: -0.03 | inactive: -0.009 | inactive: -0.001 | inactive: -0.001 | inactive: -0.023 | inactive: 0.033 | inactive: 0.026 | inactive: 0.03 | inactive: 0.036 | inactive: 0.047 | inactive: -0.044 | inactive: 0.004 | inactive: 0.009 | inactive: 0.023 | inactive: -0.076 | inactive: 0.016 | inactive: 0.004
6 | TGOLN2 isoform 7 (UniProt O43493) | inactive: -0.022 | inactive: -0.023 | inactive: 0.03 | inactive: 0.01 | inactive: 0.027 | inactive: 0.006 | inactive: 0.067 | inactive: -0.003 | inactive: 0.037 | inactive: 0.062 | inactive: 0.028 | inactive: 0.038 | inactive: -0.008 | inactive: 0.068 | inactive: -0.032 | inactive: 0.05 | inactive: 0.023 | inactive: 0.029 | inactive: -0.012 | inactive: -0.073
7 | THOC7 (UniProt Q6I9Y2) | inactive: 0.026 | inactive: 0.059 | inactive: -0.009 | inactive: 0.036 | inactive: -0.034 | inactive: -0.038 | inactive: -0.094 | inactive: 0.004 | inactive: -0.029 | inactive: -0.037 | inactive: -0.069 | inactive: -0.019 | inactive: -0.068 | inactive: 0.057 | inactive: 0.043 | inactive: -0.025 | inactive: 0.186 | inactive: 0.021 | inactive: 0.008 | inactive: 0.017
8 | THOC3 (UniProt Q96J01) | inactive: -0.042 | inactive: 0.07 | inactive: 0.015 | inactive: 0.025 | inactive: -0.008 | inactive: 0.014 | inactive: -0.03 | inactive: 0.021 | inactive: -0.011 | inactive: -0.001 | inactive: 0.019 | inactive: 0.02 | inactive: -0.006 | inactive: -0.022 | inactive: 0 | inactive: 0.032 | inactive: 0.02 | inactive: -0.013 | inactive: 0 | inactive: -0.034
9 | TJP2 isoform 7 (UniProt Q9UDY2) | inactive: 0.116 | inactive: 0.06 | inactive: -0.042 | inactive: 0.006 | inactive: 0.029 | inactive: -0.201 | inactive: 0.008 | inactive: -0.006 | inactive: -0.08 | inactive: 0.001 | inactive: 0.004 | inactive: -0.004 | active: -0.437 | inactive: 0.032 | inactive: -0.061 | inactive: -0.107 | inactive: 0.068 | inactive: 0.003 |  | inactive: 0.05
10 | TBL3 (UniProt Q12788) | inactive: -0.055 | inactive: -0.056 | inactive: -0.179 | inactive: 0.028 | inactive: -0.082 | inactive: -0.026 | inactive: -0.019 | inactive: 0.002 | inactive: 0.034 | inactive: 0.046 | inactive: -0.025 | inactive: 0.049 | inactive: 0.058 | inactive: 0.048 | inactive: 0.02 | inactive: 0.054 | inactive: 0.057 | inactive: 0.169 | inactive: 0.007 | inactive: 0.079
11 | TJP1 (UniProt Q07157) | inactive: 0.095 | inactive: 0.072 | inactive: 0.022 | inactive: -0.015 | inactive: 0.013 | inactive: -0.135 | inactive: 0.003 | inactive: -0.029 | inactive: -0.03 | inactive: -0.035 | inactive: -0.033 | inactive: 0.03 | active: -0.443 | inactive: 0.028 | inactive: -0.02 | inactive: -0.003 | inactive: 0.014 | inactive: 0.037 |  | inactive: 0.034
12 | TCIRG1 (UniProt Q13488) | inactive: 0.176 | inactive: 0.173 | inactive: -0.303 | inactive: 0.085 | inactive: -0.168 | inactive: 0.014 | inactive: -0.231 | inactive: -0.054 | inactive: -0.01 | inactive: -0.24 | inactive: -0.058 | inactive: -0.008 | inactive: -0.296 | inactive: 0.156 | inactive: 0.104 | inactive: -0.461 | inactive: 0.369 | inactive: 0.337 | inactive: 0.182 | inactive: 0.03
13 | TCF12 isoform 3 (UniProt Q99081) | inactive: 0.063 | inactive: 0.075 | inactive: -0.027 | inactive: 0.036 | inactive: -0.127 | inactive: 0.011 | inactive: 0.123 | inactive: 0.042 | inactive: -0.036 | inactive: -0.013 | inactive: 0.001 | inactive: -0.007 | inactive: -0.123 | inactive: -0.012 | inactive: -0.114 | inactive: -0.125 | inactive: -0.022 | inactive: -0.138 | inactive: 0.051 | inactive: -0.023
14 | THOC5 (UniProt Q13769) | inactive: -0.101 | inactive: 0.066 | inactive: -0.032 | inactive: 0.021 | inactive: -0.035 | inactive: 0.012 | inactive: -0.074 | inactive: 0.004 | inactive: -0.025 | inactive: -0.017 | inactive: 0.028 | inactive: -0.039 | inactive: -0.071 | inactive: -0.03 | inactive: 0.007 | inactive: 0.028 | inactive: 0.073 | inactive: 0.012 | inactive: -0.004 | inactive: 0.093
15 | TKT isoform 2 (UniProt P29401) | inactive: 0.01 | inactive: 0.004 | inactive: 0.029 | inactive: -0.012 | inactive: -0.033 | inactive: -0.004 | inactive: -0.046 | inactive: 0.011 | inactive: -0.004 | inactive: 0.059 | inactive: 0.035 | inactive: -0.04 | inactive: 0.002 | inactive: -0.026 | inactive: 0.008 | inactive: 0.091 | inactive: 0.005 | inactive: -0.056 | inactive: 0.018 | inactive: 0.005
16 | TBL2 (UniProt Q9Y4P3) | inactive: -0.093 | inactive: 0.022 | inactive: -0.354 | inactive: 0.01 | inactive: -0.013 | inactive: -0.011 | inactive: -0.029 | inactive: 0.021 | inactive: -0.067 | inactive: -0.112 | inactive: -0.115 | inactive: -0.043 | inactive: 0.009 | inactive: 0.183 | inactive: 0.069 | inactive: -0.053 | inactive: 0.157 | inactive: 0.282 | inactive: 0.016 | inactive: 0.106

Copied from above: entries 7–8
Row | Target | log2 fold change (erlotinib) | log2 fold change [1] | log2 fold change [2] | log2 fold change [3] | log2 fold change [4] | log2 fold change [5] | log2 fold change [6] | log2 fold change [7] | log2 fold change [8] | log2 fold change [9] | log2 fold change (IRAK-1-4 Inhibitor I) | log2 fold change (ibrutinib) | log2 fold change [10] | log2 fold change (ralimetinib) | log2 fold change [11] | log2 fold change [12] | log2 fold change [13] | log2 fold change (pinometostat) | log2 fold change [14] | log2 fold change [15]
7 | THOC7 (UniProt Q6I9Y2) | inactive: 0.026 | inactive: 0.059 | inactive: -0.009 | inactive: 0.036 | inactive: -0.034 | inactive: -0.038 | inactive: -0.094 | inactive: 0.004 | inactive: -0.029 | inactive: -0.037 | inactive: -0.069 | inactive: -0.019 | inactive: -0.068 | inactive: 0.057 | inactive: 0.043 | inactive: -0.025 | inactive: 0.186 | inactive: 0.021 | inactive: 0.008 | inactive: 0.017
8 | THOC3 (UniProt Q96J01) | inactive: -0.042 | inactive: 0.07 | inactive: 0.015 | inactive: 0.025 | inactive: -0.008 | inactive: 0.014 | inactive: -0.03 | inactive: 0.021 | inactive: -0.011 | inactive: -0.001 | inactive: 0.019 | inactive: 0.02 | inactive: -0.006 | inactive: -0.022 | inactive: 0 | inactive: 0.032 | inactive: 0.02 | inactive: -0.013 | inactive: 0 | inactive: -0.034

— the supplement of paper PMC10849652
